The supplement of paper PMC7877785
± gives the uncertainty stated by the source. Many of these values have a large error.

Assay: self-splicing fitness, log relative to wild type (ln ratio); higher = more splicing; Tetrahymena group I intron in knt gene, E. coli kanamycin selection, DiMSum; sequences stand for … in CUCUCU…GGAGGGAAAAGUUAUCAGGCAUGCACCUGGUAGCUAGUCUUUAAACCAAUAGAUUGCAUCGGUUUAAAAGGCAAGACCGUCAAAUUGCGGGAAAGGGGUCAACAGCCGUUCAGUACCAAGUCUCAGGGGAAACUUUGAGAUGGCCUUGCAAAGGGUAUGGUAAUAAGCUGACGGACAUGGUCCUAACCACGCAGCCAAGUCCUAAGUCAACAGAUCUUCUGUUGAUAUGGAUGCAGUUCACAGACUAAAUGUCGGUCGGGGAAGAUGUAUUCUUCUCAUAAGAUAUAGUCGGACCUCUCCUUAAUGGGAGCUAGCGGAUGAAGUGAUGCAACACUGGAGCCGCUGGGAACUAAUUUGUAUGCGAAAGUAUAUUGAUUAGUUUUGGAGUACUCGUGGUCG
Procedure, shortened: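 Fitness was computed with DiMSum as the error-weighted combination of replicate fold changes, kanamycin versus none, each normalised to wild type. The library randomised all eight intron nucleotides of the P1ex region, with the intron placed in the knt kanamycin-resistance gene on pET-22b(+) in E. coli BL21(DE3). Six replicate transformations were grown overnight at 37°C or 30°C on LB agar with or without 25 μg/mL kanamycin, plus 100 μg/mL carbenicillin, 50 μM IPTG and 0.2% rhamnose. Pooled colonies were amplicon-sequenced on an Illumina HiSeq 2500.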

GUUGAGCAAUAUUACGCGCA
self-splicing fitness (ln) (30 °C): -1.02 ± 0.2 | self-splicing fitness (ln) (37 °C): -0.636 ± 0.24

CGGGAGCAAUAUUACGGUUU
self-splicing fitness (ln) (30 °C): -4.4 ± 0.59 | self-splicing fitness (ln) (37 °C): -1.19 ± 0.32

UCGGAGCAAUAUUACGAAUA
self-splicing fitness (ln) (30 °C): -2.32 ± 0.32 | self-splicing fitness (ln) (37 °C): -1.27 ± 0.32

GAUGAGCAAUAUUACGCACA
self-splicing fitness (ln) (30 °C): -2.13 ± 0.51 | self-splicing fitness (ln) (37 °C): -1.48 ± 0.65

AUGGAGCAAUAUUACGACGA
self-splicing fitness (ln) (30 °C): -1.15 ± 0.61

CGCUAGCAAUAUUACGUCUU
self-splicing fitness (ln) (30 °C): -4.88 ± 0.51

UAGUAGCAAUAUUACGAGAC
self-splicing fitness (ln) (30 °C): -5.83 ± 1

AUGCAGCAAUAUUACGUGAA
self-splicing fitness (ln) (30 °C): -2.44 ± 0.12 | self-splicing fitness (ln) (37 °C): -0.683 ± 0.13

UCCAAGCAAUAUUACGAUGC
self-splicing fitness (ln) (37 °C): -1.62 ± 0.69

CUCGAGCAAUAUUACGUCAG
self-splicing fitness (ln) (30 °C): -3.41 ± 0.54

GUUUAGCAAUAUUACGGCGG
self-splicing fitness (ln) (37 °C): -1.29 ± 0.71

GGUUAGCAAUAUUACGAGAU
self-splicing fitness (ln) (30 °C): -3.4 ± 0.62

ACUUAGCAAUAUUACGAGUC
self-splicing fitness (ln) (30 °C): -4.93 ± 0.59

UAUUAGCAAUAUUACGGAUA
self-splicing fitness (ln) (30 °C): -1.86 ± 0.78

GUUUAGCAAUAUUACGCUUA
self-splicing fitness (ln) (30 °C): -1.24 ± 0.15 | self-splicing fitness (ln) (37 °C): -0.129 ± 0.12

CCAGAGCAAUAUUACGUGCC
self-splicing fitness (ln) (30 °C): -3.42 ± 0.38 | self-splicing fitness (ln) (37 °C): -2.76 ± 0.32

UCUGAGCAAUAUUACGCAAC
self-splicing fitness (ln) (30 °C): -3.16 ± 0.64

UUCAAGCAAUAUUACGUCUU
self-splicing fitness (ln) (30 °C): -4.97 ± 0.58

GCGGAGCAAUAUUACGUGCC
self-splicing fitness (ln) (30 °C): -3.53 ± 0.54 | self-splicing fitness (ln) (37 °C): -1.39 ± 1.2

UGGCAGCAAUAUUACGAGAU
self-splicing fitness (ln) (37 °C): -2.3 ± 0.55

UUCCAGCAAUAUUACGCCCC
self-splicing fitness (ln) (37 °C): -0.731 ± 0.56

UAGGAGCAAUAUUACGCUAA
self-splicing fitness (ln) (30 °C): -2.42 ± 0.67

AGAGAGCAAUAUUACGGAAA
self-splicing fitness (ln) (30 °C): -2.14 ± 0.53 | self-splicing fitness (ln) (37 °C): -2.24 ± 0.79

GUUCAGCAAUAUUACGAUUA
self-splicing fitness (ln) (30 °C): -0.665 ± 0.12 | self-splicing fitness (ln) (37 °C): -0.545 ± 0.097

UCACAGCAAUAUUACGCAUU
self-splicing fitness (ln) (37 °C): -3.66 ± 0.51

CAACAGCAAUAUUACGUAGC
self-splicing fitness (ln) (30 °C): -4.19 ± 0.12 | self-splicing fitness (ln) (37 °C): -2.49 ± 0.12

CUCUAGCAAUAUUACGAGAC
self-splicing fitness (ln) (37 °C): -1.17 ± 0.26

GUGGAGCAAUAUUACGACAG
self-splicing fitness (ln) (30 °C): -4.49 ± 1 | self-splicing fitness (ln) (37 °C): -1.13 ± 1.2

CCGCAGCAAUAUUACGUCGC
self-splicing fitness (ln) (30 °C): -5.02 ± 0.72 | self-splicing fitness (ln) (37 °C): -3.08 ± 0.74

UUAAAGCAAUAUUACGGCUA
self-splicing fitness (ln) (30 °C): 0.185 ± 0.091 | self-splicing fitness (ln) (37 °C): 0.424 ± 0.12

UUAAAGCAAUAUUACGCCAC
self-splicing fitness (ln) (30 °C): -3.27 ± 1 | self-splicing fitness (ln) (37 °C): -4.13 ± 1

AUAGAGCAAUAUUACGAGGC
self-splicing fitness (ln) (30 °C): -2.44 ± 1.1 | self-splicing fitness (ln) (37 °C): -1.74 ± 0.7

CUUGAGCAAUAUUACGCCCA
self-splicing fitness (ln) (30 °C): -0.925 ± 0.57 | self-splicing fitness (ln) (37 °C): -2.29 ± 0.8

CUCUAGCAAUAUUACGCCGA
self-splicing fitness (ln) (30 °C): -3.42 ± 1 | self-splicing fitness (ln) (37 °C): -2.96 ± 0.75

UUUGAGCAAUAUUACGCUGC
self-splicing fitness (ln) (37 °C): -2.3 ± 1.1

ACCCAGCAAUAUUACGACUU
self-splicing fitness (ln) (30 °C): 0.148 ± 0.042 | self-splicing fitness (ln) (37 °C): 0.908 ± 0.062

ACCUAGCAAUAUUACGCCCC
self-splicing fitness (ln) (30 °C): -0.432 ± 0.75

AUGAAGCAAUAUUACGGAUG
self-splicing fitness (ln) (30 °C): -0.705 ± 0.063 | self-splicing fitness (ln) (37 °C): 0.152 ± 0.076

UCGGAGCAAUAUUACGCGCU
self-splicing fitness (ln) (30 °C): -4.23 ± 1

UGAGAGCAAUAUUACGUCAU
self-splicing fitness (ln) (37 °C): -2.07 ± 0.79

ACGGAGCAAUAUUACGGGAA
self-splicing fitness (ln) (30 °C): -4.37 ± 0.36 | self-splicing fitness (ln) (37 °C): -2.03 ± 0.31

UCAGAGCAAUAUUACGAAGU
self-splicing fitness (ln) (37 °C): -2.9 ± 0.54

AGUUAGCAAUAUUACGCUAC
self-splicing fitness (ln) (37 °C): -1.77 ± 0.52

CUAUAGCAAUAUUACGCGGA
self-splicing fitness (ln) (37 °C): -1.54 ± 0.69

AGUAAGCAAUAUUACGGCGC
self-splicing fitness (ln) (30 °C): -1.02 ± 0.11 | self-splicing fitness (ln) (37 °C): -0.433 ± 0.13
